Molecules are shown by their SMILES. Several values for one entry are separate records, joined by “and”; a condition that tells them apart may be missing. Equal entries are not always repeated. The list shows a part of the results. Shown are side measurements of this screen, not its main read-out; they come without a call. Most of these compounds were active or inconclusive in the main read-out, so they are no random draw. Potencies come from curve fits of mixed quality, noted in brackets.

A short description of the assay: Cell signaling CRE-BLA (Fsk stim). The note with it: CHO CRE-bla reporter (cAMP response element driving beta-lactamase), forskolin EC10, beta-lactamase ratio; measured here: 460 nm blue channel. From the text:
NIH Molecular Libraries Screening Centers Network [MLSCN]
NIH Chemical Genomics Center [NCGC]
Assay Provider: Marshall W. Nirenberg, U.S. National heart lung & blood institute
Memories persist for different lengths of time, from seconds or minutes to a lifetime. There are two kinds of memory: short-term memory (STM) and long-term memory (LTM). STM lasts for minutes to hours, which maybe mediated by modifications of molecules involved in synaptic functions. LTM lasts for days or longer, and may be due to the formation of new synapses or restructuring of existing synapses. LTM, but not STM, requires gene transcription and synthesis of proteins. CREB (cyclic-AMP Responsive Element Binding Protein) is one of the candidates plays an important role for enhancement of some types of LTM. CREB, a family of transcription factors, regulates the transcription of genes containing cAMP Responsive Elements (CRE). CRE is a nucleotide sequence often found in the promoter regions of genes that are binding sites for CREB.
Using a beta-lactamase reporter-gene under control of cAMP responsive element, a cell-based assay [CellSensor(TM) CRE-bla CHO developed by Invitrogen Corp.] was used to measure forskolin-induced signaling. Library compounds were measured for their ability to modulate positively or negatively the action of EC10 NKH 477, a water soluble forskolin, on reporter gene activity. Compounds were screened in a titration series in 1536-well format. Positive and negative modulators were identified based on the AC50 values derived from the screening data.
NCGC Assay Protocol Summary
2000 cells/5uL in Opti-MEM medium containing 0.5% dialyzed FBS, 0.1 mM NEAA, 1 mM sodium pyruvate and 10 mM HEPES was dispensed into 1536-well plates and cells were cultured at 37 degrees Celsius overnight. […] And then the plates were incubated at 37 degrees Celsius for 3 hours. 1 uL of CCF4-dye mixture was added to each well. After incubated at room temperature for 2 hours the plates were measured on an EnVision plate reader at Excitation 405nm, Emission1=460nm and Emission 2=530nm. The %Activity was determined from the ratio of 460nm/530nm.
Keywords: NIH Roadmap, MLSCN, MLSMR, qHTS, NCGC, CRE, beta-lactamase reporter-gene assay.
Turning to `CCOC(=O)c1sc(NC(=O)CSc2nc(-c3ccco3)cc(C(F)(F)F)n2)c(C#N)c1C`, the AC50 is 12.6 µM [falling, single point].

With `NC1=NC2(CCC(c3ccccc3)CC2)n2c(nc3ccccc32)N1` (configuration not stated), the AC50 was 1 µM [falling, full curve].

`CCN(C(=O)c1coc(=O)c(Br)c1)c1ccc2c(c1)OCO2`: the half-maximal activity concentration (AC50) is 3.16 µM [falling, single point]. For the molecule `CN(Cc1ccccc1)Cc1nc2c(c(=O)n(C)c(=O)n2C)n1CCc1ccccc1`, the AC50 was 25.1 µM [rising, single point]. Regarding `COc1ccc(N=CC2=C(O)CC(C)(C)CC2=O)cc1`, the AC50 is 12.6 µM [rising, single point].

Take `C[C@@H]1O[C@@H](n2cc(F)c(=O)[nH]c2=O)[C@H](O)[C@@H]1O`: the AC50 is 25.1 µM [falling, partial curve].

`CN(CC(=O)N1CCc2ccccc21)S(=O)(=O)c1cccs1`: the concentration at half-maximal activity (AC50) was 0.0631 µM [falling, full curve, poor fit]. For `Cc1c[n+]([O-])n(-c2ccc(C(=O)O)cc2)n1` the value was 0.00398 µM [falling, full curve, poor fit]. On to `COCn1c(-c2ccc(OC)c(OC)c2)nc2ccccc21`, for which the AC50 was 0.398 µM [falling, partial curve]. In the case of `O=C(CCNS(=O)(=O)c1ccc(Br)s1)NC1CCCC1` it was 0.02 µM [falling, partial curve]; in that of `Cc1nn2c(=O)cc(CSc3nc4ccccc4[nH]3)nc2s1`, 2 µM [rising, full curve]; in that of `CCn1c2ccccc2c2nnc(SCc3ccc(C(=O)OC)o3)nc21`, 1.26 µM [rising, full curve]. For `COc1cccc(Cn2nnc(C(=O)Nc3cc(Cl)ccc3OC)c2N)c1` the value was 1.26 µM [rising, full curve]; for `O=C(CCCSc1nc2ccccc2[nH]1)NC1=NCCS1`, 10 µM [rising, partial curve]. For the molecule `COC(=O)C1=C(C)Nc2nc(-c3ccccc3)nn2C1c1ccc(C)o1` (configuration not stated), the AC50 is 10 µM [rising, partial curve]. In the case of `CCc1nc(SCC(=O)Nc2cccc(C(F)(F)F)c2)c2c(=O)n(C)c(=O)n(C)c2n1` it was 25.1 µM [rising, single point]; in that of `CNC(=O)c1cccc(N2CCCC2=O)c1`, 0.251 µM [rising, full curve, poor fit]. As to `CC(C)C(c1nnnn1Cc1ccco1)N1CCN(c2nc3ccccc3s2)CC1` (configuration not stated), the half-maximal activity concentration (AC50) is 10 µM [falling, single point]. For `CCC(c1nnnn1C1CCCCC1)N(Cc1ccco1)Cc1cc2ccc(OC)cc2[nH]c1=O` (configuration not stated) the value was 20 µM [rising, single point]; for `CCOC(=O)c1c(NC(=O)c2noc3c2CCCC3)sc2c1CCCC2`, 3.16 µM [falling, single point].

As to `Cc1cc(Nc2ccc(C(C)C)cc2)n2ncnc2n1`, the concentration at half-maximal activity (AC50) is 25.1 µM [rising, single point]. With `Cc1cc(NCc2ccc3c(c2)OCO3)n2nc(C)nc2n1`, the AC50 was 10 µM [rising, single point]. With `CCCSc1ccc2nc(NC(=O)OC)[nH]c2c1`, the AC50 is 5.01 µM [rising, partial curve]. Consider `COC(=O)CSc1nnc2n(C3CCCCC3)c(=O)c3c4c(sc3n12)CCCC4`, for which the AC50 was 5.01 µM [rising, partial curve]. In the case of `COC(=O)c1c(NC(=O)c2cccs2)sc2c1CCCC2` it was 15.8 µM [rising, single point]. In the case of `COc1ccc(Cc2nnc(NC(=O)c3cccs3)s2)cc1`, the AC50 is 5.01 µM [rising, full curve]. For `COCCCNC(=O)CS(=O)Cc1nc(-c2cccc(OC)c2)oc1C` (configuration not stated) the value was 0.00316 µM [falling, full curve, poor fit]; for `CCCn1c(OC)nc2c1c(=O)n(C)c(=O)n2C`, 3.98 µM [rising, full curve, poor fit]; for `Cn1c(=O)oc2cc(S(=O)(=O)NC3CCCCCCC3)ccc21`, 25.1 µM [rising, single point].

`COC(=O)C1=C(N)Oc2cc(N(C)C)ccc2C1c1ccccc1OC` (configuration not stated): the AC50 was 10 µM [rising, partial curve]. In the case of `COCCNC(=O)C(c1ccc(C)o1)N(CC1CCCO1)C(=O)Cn1nnc2ccccc21` (configuration not stated) it was 0.126 µM [falling, partial curve, poor fit]. Turning to `N=c1c(C(=O)NCc2ccc(F)cc2)cc2c(=O)n3ccccc3nc2n1CC1CCCO1` (configuration not stated), the concentration at half-maximal activity (AC50) is 2.51 µM [rising, full curve]. For `COc1cc2c(cc1O)CC[C@@H]1[C@@H]2CC[C@@]2(C)[C@H](O)CC[C@H]12` the value was 12.6 µM [rising, single point]; for `CN1CCN(c2ncc3nc(-c4ccccc4)c(=O)n(-c4ccccc4)c3n2)CC1`, 10 µM [rising, partial curve]. In the case of `Cc1cc(N2CCN(C)CC2)nc2ccc(NC(=O)CCC(=O)NCCC3=CCCCC3)cc12`, the concentration at half-maximal activity (AC50) is 20 µM [falling, single point]. For `COc1ccc(-c2oc3cc(OC)c(OC(C)=O)c(OC)c3c(=O)c2OC)cc1OC(C)=O` the value was 0.251 µM [rising, full curve, poor fit]; for `Cc1c(C(=O)NCCCN2CCCC2=O)oc2ccccc12`, 12.6 µM [falling, partial curve].

Turning to `Cc1cc(NC(=O)c2cccc(C(=O)Nc3cc(C)on3)n2)no1`, the AC50 is 20 µM [rising, partial curve, poor fit]. For `CCOc1ccccc1Nc1nnc(SCc2ccc(C(=O)OC)o2)s1` the value was 12.6 µM [rising, partial curve]. For `CSc1ccccc1NC(=O)c1cnc2scc(C)n2c1=O` the value was 7.94 µM [rising, partial curve]; for `Cc1ccc(-n2c(Cc3cccn3C)nnc2SCC(=O)Nc2ccc3c(c2)OCO3)cc1`, 7.94 µM [falling, partial curve].

Take `CC(C)c1ccc2oc(-c3ccc(NC(=O)c4ncn[nH]4)cc3)nc2c1`: the AC50 was 6.31 µM [falling, partial curve].

In the case of `O=C(Nc1ccon1)c1cc(-c2ccccc2)nc2ccccc12`, the half-maximal activity concentration (AC50) is 10 µM [rising, single point]. With `Cc1cc2c(C(C)C)c(O)c(O)c(C=O)c2c(O)c1-c1c(C)cc2c(C(C)C)c(O)c(O)c(C=O)c2c1O`, the AC50 is 10 µM [falling, single point] and 15.8 µM [falling, single point]. In the case of `COc1ccc2nc(NCc3ccccc3)[nH]c2c1` it was 12.6 µM [falling, single point]; in that of `COc1ccc2c(=O)cc(-c3ccccc3)oc2c1O`, 15.8 µM [rising, partial curve]. As for `O=C(Nc1ccn(Cc2ccc(F)cc2)n1)c1ccncc1`, the AC50 is 0.2 µM [falling, full curve]. Take `COCCNc1nc(C)nc2c1nc(-c1ccccc1)n2CCN1CCCCC1`: the concentration at half-maximal activity (AC50) is 10 µM [rising, single point]. In the case of `Cc1cccc2c(=O)c(C(=O)N3CCCCCC3)c[nH]c12` it was 2 µM [rising, partial curve]; in that of `Cc1cc(C)nc(N2CCN(c3nnnn3-c3ccccc3)CC2)n1`, 0.00316 µM [falling, full curve, poor fit].

As for `CCn1c(=O)c2c(nc3n2CC(C)CN3CCc2ccccc2)n(C)c1=O` (configuration not stated), the AC50 was 5.01 µM [rising, full curve]. `O=C(c1cccc(Cl)c1)N1CCN(c2ccccn2)CC1`: the AC50 was 2.51 µM [falling, partial curve]. For `CC(=O)NCCNc1nc(-c2ccc(C(=O)N(C)C)cc2)nc2ccccc12` the value was 12.6 µM [rising, partial curve]. Turning to `COc1ccc(C(=O)Nc2cccc(C(=O)N3CCN(C)CC3)c2)cc1`, the AC50 was 25.1 µM [rising, single point]. For `COc1ccc(/C=N/n2cnnc2SCc2ccc(OC)cc2)cc1` the value was 10 µM [rising, single point]; for `Cc1oc2nc(SCC(=O)NC3CCCCC3)nc(N)c2c1C`, 10 µM [rising, partial curve]. For `COC(=O)[C@@]1(Cc2ccccc2)[C@H]2c3cc(C(=O)N4CCCC4)n(Cc4ccc(OC)c(OC)c4)c3C[C@H]2CN1C(=O)c1ccccc1` the value was 0.251 µM [rising, partial curve]; for `Cn1cc(/C=N/n2cnc3scc(-c4ccc(Cl)cc4)c3c2=O)c2ccccc21`, 0.501 µM [rising, full curve]; for `CC(=O)Nc1ccc(-c2nn[nH]n2)cc1Cl`, 25.1 µM [falling, single point]. Regarding `COc1ccc(C(C)=O)cc1COC(=O)Cn1cnc2ccccc2c1=O`, the AC50 was 25.1 µM [rising, single point].

With `CCNc1ncc2nc(-c3cccs3)c(=O)n(CCc3ccccc3)c2n1`, the AC50 is 1.26 µM [rising, full curve]. In the case of `C#CCOC(=O)c1ccccc1C(=O)n1nnc2ccccc21` it was 0.398 µM [falling, partial curve]; in that of `O=c1c(-c2cc(F)cc(F)c2)nc2cnc(N3CCOCC3)nc2n1Cc1ccc(F)cc1`, 12.6 µM [rising, partial curve]; in that of `COC(=O)c1c(NC(=O)Cc2cccs2)sc(C(=O)N2CCCCC2)c1C`, 0.631 µM [rising, full curve, poor fit].

As for `COc1ccc2c(C)cc(=O)oc2c1C`, the AC50 is 10 µM [rising, single point].

On to `Cc1c(C#N)sc2nc(-c3ccccc3)nc(N3CCCC3)c12`, for which the AC50 was 1 µM [rising, single point]. For `CCOC(=O)C1CCCN(c2c(NCCCN(CC)c3cccc(C)c3)c(=O)c2=O)C1` (configuration not stated), the AC50 is 2.51 µM [rising, single point].

By AC50 is commonly meant the concentration giving half of the maximal activity seen.

These data come from PubChem BioAssay AID662 (National Center for Advancing Translational Sciences (NCATS), 2007).
